The values below come from PMC4741643.

Chains of the proteins cited; added tags and fusions are not shown. Lines headed by an entry give the natural chain unless they say otherwise; changes in a name come on top.
UniProt P17948: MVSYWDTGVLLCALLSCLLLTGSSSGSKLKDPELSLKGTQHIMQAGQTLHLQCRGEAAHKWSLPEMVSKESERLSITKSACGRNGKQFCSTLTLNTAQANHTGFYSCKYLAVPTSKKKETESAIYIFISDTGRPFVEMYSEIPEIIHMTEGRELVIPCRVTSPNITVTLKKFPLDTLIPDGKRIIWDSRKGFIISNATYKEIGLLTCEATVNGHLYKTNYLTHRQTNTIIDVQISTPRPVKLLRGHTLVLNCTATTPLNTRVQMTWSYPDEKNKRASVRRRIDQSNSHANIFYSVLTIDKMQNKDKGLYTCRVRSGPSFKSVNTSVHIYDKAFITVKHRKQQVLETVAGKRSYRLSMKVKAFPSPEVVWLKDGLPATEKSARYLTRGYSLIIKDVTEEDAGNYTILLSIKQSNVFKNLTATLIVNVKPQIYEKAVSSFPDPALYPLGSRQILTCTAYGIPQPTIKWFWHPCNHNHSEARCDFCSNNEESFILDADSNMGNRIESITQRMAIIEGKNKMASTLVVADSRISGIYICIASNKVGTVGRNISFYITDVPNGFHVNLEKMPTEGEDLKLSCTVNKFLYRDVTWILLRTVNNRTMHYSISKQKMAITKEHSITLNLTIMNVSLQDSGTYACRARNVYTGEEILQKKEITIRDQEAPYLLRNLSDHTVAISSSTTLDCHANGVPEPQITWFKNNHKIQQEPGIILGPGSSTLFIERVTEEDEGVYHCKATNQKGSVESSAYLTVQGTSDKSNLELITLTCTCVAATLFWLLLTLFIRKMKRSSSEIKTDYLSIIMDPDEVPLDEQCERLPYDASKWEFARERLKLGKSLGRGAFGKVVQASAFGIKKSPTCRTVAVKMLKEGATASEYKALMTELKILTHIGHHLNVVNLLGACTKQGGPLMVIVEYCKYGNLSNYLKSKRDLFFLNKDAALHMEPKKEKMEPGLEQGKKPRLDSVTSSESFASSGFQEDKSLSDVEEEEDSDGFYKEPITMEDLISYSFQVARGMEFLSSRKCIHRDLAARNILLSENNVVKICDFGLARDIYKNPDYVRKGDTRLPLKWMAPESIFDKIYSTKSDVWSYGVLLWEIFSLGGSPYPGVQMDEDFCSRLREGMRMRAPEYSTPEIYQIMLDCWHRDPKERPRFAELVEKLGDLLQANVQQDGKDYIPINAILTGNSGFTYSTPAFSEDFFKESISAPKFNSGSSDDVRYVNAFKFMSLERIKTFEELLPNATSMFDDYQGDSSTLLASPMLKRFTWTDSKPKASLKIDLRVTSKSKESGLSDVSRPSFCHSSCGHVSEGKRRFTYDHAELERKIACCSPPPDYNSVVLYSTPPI

The target of test [1] is T1, FLAG-sMEK1 (pcDNA3.1/Flag-sMEK1) (human) (UniProt Q6IN85).
T1 sequence: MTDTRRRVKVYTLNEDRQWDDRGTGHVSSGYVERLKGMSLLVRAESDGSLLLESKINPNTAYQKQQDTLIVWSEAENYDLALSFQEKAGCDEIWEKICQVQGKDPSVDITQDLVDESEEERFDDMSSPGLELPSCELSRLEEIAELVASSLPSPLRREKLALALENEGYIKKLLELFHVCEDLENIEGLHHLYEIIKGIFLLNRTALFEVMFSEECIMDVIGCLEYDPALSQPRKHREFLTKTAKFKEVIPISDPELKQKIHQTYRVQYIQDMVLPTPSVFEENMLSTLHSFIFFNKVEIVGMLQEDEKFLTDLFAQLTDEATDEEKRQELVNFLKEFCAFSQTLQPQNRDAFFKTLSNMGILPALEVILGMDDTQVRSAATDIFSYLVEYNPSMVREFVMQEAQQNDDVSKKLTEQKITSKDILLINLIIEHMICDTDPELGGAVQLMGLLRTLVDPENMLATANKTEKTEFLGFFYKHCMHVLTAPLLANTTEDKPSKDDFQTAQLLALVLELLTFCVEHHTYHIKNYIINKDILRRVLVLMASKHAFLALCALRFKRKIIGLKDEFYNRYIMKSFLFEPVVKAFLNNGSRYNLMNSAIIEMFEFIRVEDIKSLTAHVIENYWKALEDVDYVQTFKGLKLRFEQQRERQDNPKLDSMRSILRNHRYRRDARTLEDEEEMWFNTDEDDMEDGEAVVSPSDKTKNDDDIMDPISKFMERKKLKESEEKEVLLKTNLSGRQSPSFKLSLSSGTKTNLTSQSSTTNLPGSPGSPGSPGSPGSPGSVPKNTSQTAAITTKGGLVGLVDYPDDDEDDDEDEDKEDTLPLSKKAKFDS
Briefly: co-IP; HEK293T cells co-transfected with pcDNA3.1/Flag-sMEK1 and pcDNA3.1-VEGFR-1 or pcDNA3.1-VEGFR-2; lysis in 50 mM Tris/HCl pH 7.2, 150 mM NaCl, 1% Triton X-100; anti-Flag antibody and protein A-agarose; blots with anti-sMEK1, anti-VEGFR-1 or anti-VEGFR-2.

Test [2] concerns the target T2, suppressor of MEK null (sMEK1), full-length human, pGilda fusion (human) (UniProt Q6IN85).
T2 sequence: T1 sequence
Briefly: two-hybrid; EGY48 yeast cells; pGilda-sMEK1 as bait, pJG4-5 fusions as prey; growth on medium lacking leucine, blue colonies on X-gal plates with 2% galactose, β-galactosidase activity with ONPG.

The target in test [3] is T3, endogenous sMEK1 (human (endogenous in HEK293T)) (UniProt Q6IN85).
T3 sequence: T1 sequence
Briefly: co-IP; endogenous proteins in total lysates of HEK293T cells; IP with an antibody as indicated, Western blot with anti-sMEK1 or anti-VEGFR-2; rabbit IgG and VEGFR-1 as negative controls. (In general: In western blotting, separated proteins are transferred to a membrane and probed.)

No constants are given. Whether binding was seen depends on the method and setting. For part of these data: In cells and extracts the contact can be indirect. For part of these data: Tags and fused reporters may be left off the sequences shown.

As to “VEGFR-1 (pcDNA3.1-VEGFR-1) (from UniProt P17948 27-1338) (receptor)”, the binding entry in test [1] is “no binding”. As to “VEGFR-1, yeast two-hybrid construct (from UniProt P17948 1-1338) (receptor)”, the binding result in test [2] is on record as “no binding”. In the case of “endogenous VEGFR-1 (from UniProt P17948 27-1338) (receptor)”, in test [3], the binding entry is reported as “no binding”.
